{
  "source": "paper PMC6121465",
  "molecular_target": "Prefoldin from Chaetomium thermophilum (CtPFD), reconstituted hexameric complex (Chaetomium thermophilum var. coprophilum strain NBRC 30,073)",
  "assay": "pull-down; CtPFD bound in advance to a StrepTrap HP column; substrates unfolded in 6 M guanidine hydrochloride, diluted into 50 mM Tris-HCl pH 8.0, 100 mM KCl, 5 mM MgCl2 and applied at once; elution with 2.5 mM D-desthiobiotin; SDS-PAGE and western blot; both purified",
  "note": "These are yes or no findings as the source states them, for the method shown.",
  "data": [
    {"binder": "Porcine heart citrate synthase, denatured (enzyme, UniProt P00889 28-464) ASSTNLKDILADLIPKEQARIKTFRQQHGNTVVGQITVDMMYGGMRGMKGLVYETSVLDPDEGIRFRGYSIPECQKMLPKAKGGEEPLPEGLFWLLVTGQIPTEEQVSWLSKEWAKRAALPSHVVTMLDNFPTNLHPMSQLSAAITALNSESNFARAYAEGIHRTKYWELIYEDCMDLIAKLPCVAAKIYRNLYREGSSIGAIDSKLDWSHNFTNMLGYTDAQFTELMRLYLTIHSDHEGGNVSAHTSHLVGSALSDPYLSFAAAMNGLAGPLHGLANQEVLVWLTQLQKEVGKDVSDEKLRDYIWNTLNSGRVVPGYGHAVLRKTDPRYTCQREFALKHLPHDPMFKLVAQLYKIVPNVLLEQGKAKNPWPNVDAHSGVLLQYYGMTEMNYYTVLFGVSRALGVLAQLIWSRALGFPLERPKSMSTDGLIKLVDSK", "values": [
      {"measurement": "binding", "value": "no binding"}
    ]}
  ]
}
